In patent US12371454B2 (priority 2019, dated 2025):

Assay: general procedure: Fmoc solid-phase peptide synthesis; aa155-resin
Settings: whole synthesis

“(3S,9S,18S,24R,27S,33S)-18,27-bis[(2S)-butan-2-yl]-3-[2-[3-chloro-4-(trifluoromethyl)phenyl]ethyl]-N,N,7,10,13,16,25,28-octamethyl-9-[(4-methylphenyl)methyl]-2,5,8,11,14,17,20,26,29,32-decaoxospiro[22-thia-1,4,7,10,13,16,19,25,28,31-decazabicyclo[31.3.0]hexatriacontane-30,1′-cyclopentane]-24-carboxamide” showed an isolated yield of 3%.

Assay: general procedure: Fmoc solid-phase peptide synthesis; 2-chlorotrityl chloride resin
Settings: late stage modification step

Point of comparison: “(3S,9S,18S,21S,25S,28S,34S)-28-cyclohexyl-9-(cyclohexylmethyl)-7,10,13,16,21,22,26,29-octamethyl-18-[(1S)-1-methylpropyl]-25-(piperidine-1-carbonyl)-3-[2-(3,4,5-trichlorophenyl)ethyl]spiro”, step yield 47%. Against it:
- (3S,9S,18S,21S,25S,28S,31S,34S)-31-benzyl-9-[(4-chlorophenyl)methyl]-3-[2-[2-fluoro-4-(trifluoromethyl)phenyl]ethyl]-28-isobutyl-7,10,13,16,21,22,29,32-octamethyl-18-[(1S)-1-methylpropyl]-25-(pyrrolidine-1-carbonyl)-1,4,7,10,13,16,19,22,26,29,32-undecazabicyclo — higher, 71%
- (5S,8S,11S,15S,18S,23aS,29S,35S,37aS)-8-((S)-sec-butyl)-35-(cyclohexylmethyl)-18-cyclopentyl-29-(4-(difluoromethyl)-3-fluorophenethyl)-11-isobutyl-5,6,12,16,19,33,36-heptamethyl-15-(piperidin-1-carbonyl)docosahydro-2H,4H-spiro — lower, 42.7%
- (3S,9S,18S,21S,25S,28S,34S)-3-[2-(4-chlorophenoxy)ethyl]-28-cyclohexyl-9-(cyclohexylmethyl)-7,10,13,16,21,22,26,29-octamethyl-18-[(1S)-1-methylpropyl]-25-(piperidine-1-carbonyl)spiro — lower, 22%
- (1S,7S,10S,14S,17S,26S,32S)-32-[(3-iodophenyl)methyl]-7,14-diisobutyl-3,4,4,9,13,19,22,25,28-nonamethyl-17-[(1S)-1-methylpropyl]-10-(piperidine-1-carbonyl)-3,6,9,13,16,19,22,25,28,31,34-undecazabicyclo[24.8.6]tetracontane-2,5,8,12,15,18,21,24,27,30,33-undecone — higher, 69%
- (3S,9S,18S,21S,25S,28S,34S)-28-cyclohexyl-9-(cyclohexylmethyl)-7,10,13,16,21,22,26,29-octamethyl-18-[(1S)-1-methylpropyl]-25-(piperidine-1-carbonyl)-3-[2-[4-(trifluoromethyl)phenoxy]ethyl]spiro — lower, 13%
- (3S,9S,18S,21S,25S,28S,34S)-9-(cyclohexylmethyl)-28-isopropyl-7,10,13,16,21,22,26,29-octamethyl-18-[(1S)-1-methylpropyl]-25-(piperidine-1-carbonyl)-3-[2-(3,4,5-trichlorophenyl)ethyl]spiro — lower, 33%
- (3S,9S,18S,21S,25S,28S,34S)-28-cyclohexyl-9-(cyclohexylmethyl)-3-[2-(3,4-dichlorophenoxy)ethyl]-7,10,13,16,21,22,26,29-octamethyl-18-[(1S)-1-methylpropyl]-25-(piperidine-1-carbonyl)spiro — lower, 7.5%
- (6S,9S,13S,16S,22S,25S,31S,34S)-25-[(3-iodophenyl)methyl]-9,16-diisobutyl-4,10,14,19,19,20,29,32-octamethyl-6-[(1S)-1-methylpropyl]-22-(phenoxymethyl)-13-(piperidine-1-carbonyl)-31-(p-tolylmethyl)-1,4,7,10,14,17,20,23,26,29,32-undecazabicyclo — lower, 29%
- (3S,9S,18S,21S,25R,28S,34S,36R)-36-benzyloxy-9-(cyclohexylmethyl)-3-[2-[3-fluoro-4-(trifluoromethyl)phenyl]ethyl]-21,28-diisobutyl-7,10,13,16,22,25,29-heptamethyl-18-[(1S)-1-methylpropyl] — higher, 70%
- (3S,9S,18S,21S,25S,28S,34S)-3-[(4-chlorophenoxy)methyl]-28-cyclohexyl-9-(cyclohexylmethyl)-7,10,13,16,21,22,26,29-octamethyl-18-[(1S)-1-methylpropyl]-25-(piperidine-1-carbonyl)spiro — lower, 16%
- (3S,9S,18S,21S,25S,28S,34S,36R)-3-[2-[3-chloro-4-(trifluoromethyl)phenyl]ethyl]-28-cyclohexyl-9-(cyclohexylmethyl)-36-(2-hydroxyethoxy)-21-isobutyl-7,10,13,16,22,26,29-heptamethyl-18-[(1S)-1-methylpropyl]-25-(piperidine-1-carbonyl)spiro — lower, 44%
- (3S,9S,18S,21S,25S,28S,34S,36S)-3-[2-[3-chloro-4-(trifluoromethyl)phenyl]ethyl]-28-cyclohexyl-9-(cyclohexylmethyl)-36-(2-hydroxyethoxy)-21-isobutyl-7,10,13,16,22,26,29-heptamethyl-18-[(1S)-1-methylpropyl]-25-(piperidine-1-carbonyl)spiro — higher, 54%

Same assay, conditions: late stage modification step, through two steps

With “(3S,9S,18S,21S,25S,28S,34S,36R)-3-[2-[3-chloro-4-(trifluoromethyl)phenyl]ethyl]-9-(cyclopentylmethyl)-21-isobutyl-28-isopropyl-7,10,13,16,22,26,29-heptamethyl-18-[(1S)-1-methylpropyl]-25-(piperidine-1-carbonyl)-36-(triazol-1-yl)spiro” the step yield was 84% through two steps.
